Results reported in US20240360076A1, “NONIONIC SURFACTANTS” (priority 2023, published 2024).

Assay: Surfactant screen for fluid flow in Zeonor cartridges and compatibility with LAMP
For `CCCCCCCCCCCCO[C@@H]1O[C@H](CO)[C@@H](O[C@H]2O[C@H](CO)[C@@H](O)[C@H](O)[C@H]2O)[C@H](O)[C@H]1O` [Dodecyl-β-D-Maltopyranoside], the “outcome of screen for fluid flow and LAMP compatibility” value (“outcome of screen” below) was “unsuccessful”.
In the case of `C[C@H](CCC(=O)NCCC[N+](C)(C)CCCS(=O)(=O)[O-])[C@H]1CC[C@H]2[C@@H]3[C@H](O)C[C@@H]4C[C@H](O)CC[C@]4(C)[C@H]3C[C@H](O)[C@]12C` [CHAPS], the “outcome of screen” value is reported as “unsuccessful”.
For `C[N+](C)(C)CC(=O)O` [Betaine], the “outcome of screen” value was “unsuccessful”.
For `CCCCCCCCCCCCOP(=O)([O-])OCC[N+](C)(C)C` [Fos-choline-12], the “outcome of screen” value was “unsuccessful”.
In the case of `CCCCCCCCCCO[C@@H]1O[C@H](CO)[C@@H](O)[C@H](O)[C@H]1O` [Decyl-β-D-Glucopyranoside], the “outcome of screen” value is reported as “unsuccessful”.
For `NC(N)=O` [Urea], the “outcome of screen” value was “unsuccessful”.
In the case of `CCCCCCCCCCCC[N+](C)(C)[O-]` [LDAO], the “outcome of screen” value is reported as “unsuccessful”.
In the case of `COCCOCCOCCOCCOCCOCCOCCOCCOCCOCCOCCOCCOCCOCCOCCOCCOCCOCCOCCOCCOCCOCCOCCOCCOCCOCCOCCOCCOCCOCCOCCOCCOCCOCCOCCOCCO` [m-PEG36-alcohol], the “outcome of screen” value is reported as “unsuccessful”.
